In publication PMC13482807:
No constants are given. Whether binding was seen depends on the method and setting. In cells and extracts the contact can be indirect. Binding can be weak; no strength is given.

Molecular target: T1, Kibra (Kib) (Drosophila) (UniProt Q9VFG8)
T1 sequence: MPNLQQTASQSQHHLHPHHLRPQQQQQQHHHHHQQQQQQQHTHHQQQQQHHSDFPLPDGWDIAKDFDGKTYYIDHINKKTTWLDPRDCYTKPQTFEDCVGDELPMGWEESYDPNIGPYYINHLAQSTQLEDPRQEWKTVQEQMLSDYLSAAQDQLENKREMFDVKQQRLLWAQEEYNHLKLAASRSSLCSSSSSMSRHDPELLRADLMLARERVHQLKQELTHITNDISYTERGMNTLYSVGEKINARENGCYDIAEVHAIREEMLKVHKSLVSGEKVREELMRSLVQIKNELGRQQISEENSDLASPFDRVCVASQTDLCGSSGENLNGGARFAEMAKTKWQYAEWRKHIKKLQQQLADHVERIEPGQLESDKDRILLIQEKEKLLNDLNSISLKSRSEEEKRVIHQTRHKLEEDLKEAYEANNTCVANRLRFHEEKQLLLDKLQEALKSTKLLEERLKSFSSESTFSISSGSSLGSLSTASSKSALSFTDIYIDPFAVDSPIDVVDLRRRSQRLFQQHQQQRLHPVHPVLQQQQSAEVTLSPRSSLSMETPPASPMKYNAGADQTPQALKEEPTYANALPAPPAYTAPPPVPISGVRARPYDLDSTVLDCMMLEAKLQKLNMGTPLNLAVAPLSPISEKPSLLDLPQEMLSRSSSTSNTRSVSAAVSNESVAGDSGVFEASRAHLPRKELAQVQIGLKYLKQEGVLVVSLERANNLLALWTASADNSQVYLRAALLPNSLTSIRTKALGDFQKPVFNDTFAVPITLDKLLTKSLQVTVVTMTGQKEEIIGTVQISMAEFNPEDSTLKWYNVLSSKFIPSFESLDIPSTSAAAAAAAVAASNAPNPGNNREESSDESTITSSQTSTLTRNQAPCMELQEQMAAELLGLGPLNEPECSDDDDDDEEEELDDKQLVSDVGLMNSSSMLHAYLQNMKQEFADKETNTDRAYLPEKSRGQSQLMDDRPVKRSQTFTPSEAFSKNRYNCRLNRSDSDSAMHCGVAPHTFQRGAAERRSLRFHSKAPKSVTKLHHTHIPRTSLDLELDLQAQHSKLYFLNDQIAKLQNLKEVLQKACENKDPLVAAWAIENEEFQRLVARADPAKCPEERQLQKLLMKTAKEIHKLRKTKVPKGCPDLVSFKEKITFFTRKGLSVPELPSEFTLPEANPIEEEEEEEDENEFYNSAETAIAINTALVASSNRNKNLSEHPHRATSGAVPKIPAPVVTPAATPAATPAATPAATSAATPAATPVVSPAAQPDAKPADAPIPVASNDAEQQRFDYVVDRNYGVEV
Experiment: co-IP; S2 cells transfected with the tagged constructs; lysis in 50 mM Tris pH 7.5, 150 mM NaCl, 1% Triton X-100, 10% glycerol, 1 mM EDTA with phosphatase and protease inhibitors; FLAG-tagged proteins on anti-FLAG M2 agarose 1-2 h at 4 °C, eluted with 3x FLAG peptide; immunoblot (Figures EV3G,H, EV5C-E, 5B-D)

- binding: binds
Substance: Well-rounded (Wrd), PP2A B' regulatory subunit (Drosophila)
